No constants are given. Whether binding was seen depends on the method and setting. In cells and extracts the contact can be indirect. Some entries that bind do so weakly or less than the wild type.

Amino acid sequences for entries named in this document (tags omitted).
UniProt P40763: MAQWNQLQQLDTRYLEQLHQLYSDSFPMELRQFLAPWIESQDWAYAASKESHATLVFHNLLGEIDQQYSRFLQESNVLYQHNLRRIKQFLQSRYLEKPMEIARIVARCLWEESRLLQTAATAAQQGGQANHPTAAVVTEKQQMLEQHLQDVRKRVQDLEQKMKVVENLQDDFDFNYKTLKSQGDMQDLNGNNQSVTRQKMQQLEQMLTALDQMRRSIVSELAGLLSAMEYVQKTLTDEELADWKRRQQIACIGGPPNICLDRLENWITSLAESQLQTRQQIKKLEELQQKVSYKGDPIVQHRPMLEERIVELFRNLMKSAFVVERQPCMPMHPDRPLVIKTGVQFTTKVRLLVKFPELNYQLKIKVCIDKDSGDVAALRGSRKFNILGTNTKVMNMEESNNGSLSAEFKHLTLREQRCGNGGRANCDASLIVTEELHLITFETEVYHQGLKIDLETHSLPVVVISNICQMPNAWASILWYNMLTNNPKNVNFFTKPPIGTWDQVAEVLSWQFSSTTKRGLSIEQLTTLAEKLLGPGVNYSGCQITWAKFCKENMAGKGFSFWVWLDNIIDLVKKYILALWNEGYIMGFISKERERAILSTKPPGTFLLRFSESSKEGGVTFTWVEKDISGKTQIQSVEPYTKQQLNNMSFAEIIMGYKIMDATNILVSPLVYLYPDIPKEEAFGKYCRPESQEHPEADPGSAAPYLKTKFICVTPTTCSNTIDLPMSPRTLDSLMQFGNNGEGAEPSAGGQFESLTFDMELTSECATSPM
UniProt Q12778: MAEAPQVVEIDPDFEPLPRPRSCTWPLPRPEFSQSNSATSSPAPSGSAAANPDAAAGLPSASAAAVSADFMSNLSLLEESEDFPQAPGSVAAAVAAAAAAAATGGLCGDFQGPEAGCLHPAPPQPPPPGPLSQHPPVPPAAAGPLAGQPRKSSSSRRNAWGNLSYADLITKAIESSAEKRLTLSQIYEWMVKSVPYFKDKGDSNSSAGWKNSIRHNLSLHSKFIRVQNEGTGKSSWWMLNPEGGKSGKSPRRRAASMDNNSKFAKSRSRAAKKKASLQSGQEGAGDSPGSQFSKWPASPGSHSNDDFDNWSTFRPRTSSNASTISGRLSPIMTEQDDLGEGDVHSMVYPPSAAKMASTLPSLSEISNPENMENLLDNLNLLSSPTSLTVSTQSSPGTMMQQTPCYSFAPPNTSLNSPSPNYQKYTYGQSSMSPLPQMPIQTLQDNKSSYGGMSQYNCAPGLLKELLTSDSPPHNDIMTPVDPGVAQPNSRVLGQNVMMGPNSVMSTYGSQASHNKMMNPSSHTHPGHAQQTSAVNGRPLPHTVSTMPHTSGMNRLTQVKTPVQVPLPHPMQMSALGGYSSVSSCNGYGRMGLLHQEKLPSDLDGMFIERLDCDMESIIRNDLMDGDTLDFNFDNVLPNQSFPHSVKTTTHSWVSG

This test concerns the target signal transducer and activator of transcription 3 (STAT3) (human (endogenous in HaCaT)) (UniProt P40763). Put plainly: co-IP; HaCaT cell lysate (mild IP lysis solution) incubated with FOXO1 or STAT3 antibodies or control IgG and protein A agarose overnight at 4°C; the interacting protein detected by western blotting. (In general: A western blot detects proteins with antibodies after separation by electrophoresis.)

On to “forkhead box protein O1 (FOXO1) (from UniProt Q12778 1-655)”, for which the binding entry is “binds”.

The values are drawn from article PMC9589051.
